US20260034192A1 (University of Saskatchewan, priority 2022, published 2026)
Square brackets hold non-standard residues; d marks the D form. Peptide text beside a SMILES is read from it. dPhe(4-Cl) = N[C@H](Cc1ccc(Cl)cc1)C(=O)O; d2Nal = N[C@H](Cc1ccc2ccccc2c1)C(=O)O; dCit = NC(=O)NCCC[C@@H](N)C(=O)O; d3Pal = N[C@H](Cc1cccnc1)C(=O)O

Test system: Hereford crossbred heifers
Assay: Cetrorelix pre-treatment before kisspeptin-10 in low-progesterone heifer model (Example 1)
Assay type: in vivo, cattle
Conditions: Day 6 of wave, Kp10 3 x 15 mg iv, Cetrorelix 20 μg/Kg im 3 h before Kp10, mean ± SEM
Description: Methods: The human Kisspeptin-10 (hKP-10) peptide (YNWNSFGLRF-NH2; SEQ ID NO: 1) was custom synthetized at >95% of purity (MW: 1318.44 g/mol) by GenScript USA Inc, Piscataway, NJ, USA. The sequence is based on the predicted C-terminal region (112-121-NH2) of human metastin (Gen Bank accession #AY117143) and has been previously used in cattle. The peptide was previously tested for solubility and was dissolved in ultrapure water at 10 mg/mL.
The heifers were maintained in outdoor pens at the University of Saskatchewan Goodale Research Farm (52° north and 106° west). Heifers were fed barley silage and had hay and water ad libitum. […]
Immediately after ultrasound examination, heifers were given PGF2a twice at an interval of 12-hours. […] The day of wave emergence (Day 0) was defined as the day when the follicle of wave was first recorded (4 to 5 mm in diameter) with concurrent increase in diameter. […] The progesterone device was withdrawn on Day 12 (i.e., thirteen days after insertion) and ultrasound examinations were continued until ovulation was detected. […]
The plasma samples from both experiments were analyzed for LH and progesterone concentration at the University of Wisconsin (Madison, WI, USA) in Dr O. J. Ginther's Research Laboratory. Plasma LH concentrations were measured with a validated radioimmunoassay for cattle (Bolt et al. 1990) with modifications as reported Ginther et al. 1999). […]

Compound | Plasma progesterone on the day of treatment (Day 6)
CC(=O)N[C@H](Cc1ccc2ccccc2c1)C(=O)N[C@H](Cc1ccc(Cl)cc1)C(=O)N[C@H](Cc1cccnc1)C(=O)N[C@@H](CO)C(=O)N[C@@H](Cc1ccc(O)cc1)C(=O)N[C@H](CCCNC(N)=O)C(=O)N[C@@H](CC(C)C)C(=O)N[C@@H](CCCNC(=N)N)C(=O)N1CCC[C@H]1C(=O)N[C@H](C)C(N)=O [Cetrorelix, N-acetyl-3-(2-naphthyl)-D-alanyl-4-chloro-D-phenylalanyl-3-(3-pyridyl)-D-alanyl-L-seryl-L-tyrosyl-D-citrullyl-L-leucyl-L-arginyl-L-prolyl-D-alaninamide] (Ac-[d2Nal][dPhe(4-Cl)][d3Pal]SY[dCit]LRP[dA]-NH2) | 1.41 ± 0.56
Kp10: human Kisspeptin-10 (hKP-10) peptide YNWNSFGLRF-NH2; SEQ ID NO: 1 | 1.86 ± 0.43
